# Source: PubChem BioAssay AID651640 (Broad Institute, 2012)
# “And” between values parts separate entries of the source, which are not always exact repeats. Equal entries are not always repeated. Screen size: about 350,000 compounds; about 6,000 (1.7%) were called active. The inconclusive results got no clear call from the source; some entries with a clear call stand among them for comparison. Cut-off read from the data, not from the text of the source: active = CPE inhibition above about 20% (passing the limit was not always enough); inconclusive = no clear call, values can overlap the other calls; tested in BHK-21 cells. Some compounds were tested as several samples or in several runs, with calls that do not always agree.
# Test: protection of cells from dengue 2 killing – plate reader, single concentration, primary screen (AID 651640);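 note: 0% = median of neutral control wells and 100% = median of positive control wells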
# Conditions: DENV2-infected cells, cytopathic effect rescue, at 9.99 µM, stronger effect = higher value
row,SMILES,CPE inhibition
1,CCOC(=O)N1CCN(c2c(N3CCC(N4CCCCC4)CC3)c(=O)c2=O)CC1,inconclusive: 27%
2,COc1ccc(NC(=O)Nc2ccc3c(c2)CC(=O)N([C@@H](C)CO)C[C@@H](C)[C@@H](CN(C)C(=O)Nc2ccc(OC)cc2)O3)cc1,inactive: 8.92%
3,CNC(=O)c1cc(Oc2ccc(NC(=O)Nc3ccc(Cl)c(C(F)(F)F)c3)cc2)ccn1,inactive: -8.83%
4,COCC(=O)N1CC2(C1)[C@@H](c1ccccc1)[C@@H](CO)N2CCC(F)(F)F,inactive: 4.63%
5,N#C[C@H]1[C@@H](c2ccc(C#CC3CCCCC3)cc2)[C@@H](CO)N1S(=O)(=O)Cc1ccccc1,inconclusive: 33.6%
6,CCN1C(=O)[C@H]2[C@H]3CN=C(SCC4CC4)N3[C@@](Cc3ccccc3)(C(=O)OC)[C@H]2C1=O,inactive: -9.29%
7,C=CCC[C@@H](Cc1ccc(F)cc1)C(=O)OC[C@@H]1CCCN1C(=O)[C@H](CC=C)CC(=O)N[C@H](CO)Cc1ccccc1,active: 20.4%
8,CC(C)CC#Cc1ccc2c(c1)O[C@@H](CN(C)C(=O)c1cccc(F)c1)[C@H](C)CN([C@H](C)CO)S2(=O)=O,inactive: -8.45%
9,COc1ccc(NC(=O)N(C)C[C@H]2Oc3ccc(NC(=O)Nc4ccc(C(F)(F)F)cc4)cc3CC(=O)N([C@@H](C)CO)C[C@@H]2C)cc1,inactive: -3.41%
10,C=C1C(C(=O)Nc2cccc(OC)c2)C1C(=O)Nc1cccc(OC)c1 (stereo not drawn),inactive: 1.99%
11,CC1CCCC(C)N1C(=O)COC(=O)c1cc([N+](=O)[O-])ccc1N1CCOCC1 (stereo not drawn),inconclusive: 25.8%
12,CNC(=O)C[C@H]1CC[C@@H]2[C@H](COc3ccc(NC(=O)Nc4ccc(C)cc4)cc3C(=O)N2C)O1,inactive: 3.85%
13,COc1ccc(C#Cc2cnc3c(c2)C(=O)N([C@H](C)CO)C[C@H](C)[C@H](CN(C)C(=O)CN(C)C)O3)cc1,inactive: 6.35%
14,Cc1noc(C)c1NC(=O)Nc1ccc2c(c1)C(=O)N([C@H](C)CO)C[C@H](C)[C@H](CN(C)Cc1ccc(Cl)c(Cl)c1)OCCCC[C@@H](C)O2,active: 35.5%
15,Cc1ccc(NC(=S)N(CCN(C)C)C(C)c2ccco2)cc1Cl (stereo not drawn),inconclusive: 47.7%
16,O=C1C2C3C=CC(CC3)C2C(=O)N1c1ccc(Br)cc1 (stereo not drawn),inconclusive: 20.2%
17,C[C@H](CO)N1C[C@H](C)[C@H](CN(C)C(=O)Nc2ccc(F)cc2)Oc2c(NS(=O)(=O)c3ccccc3)cccc2C1=O,inactive: 17.3%
18,CCCNC(=O)N1[C@H](CO)[C@@H](c2ccc(C3=CCCC3)cc2)[C@H]1CNC(C)=O,inconclusive: 19.8%
19,C[C@@H]1CN([C@H](C)CO)C(=O)c2cc(C#Cc3ccccc3)cnc2O[C@H]1CN(C)C(=O)CCN1CCCCC1,active: 25.9%
20,CN(C[C@H](Cc1ccccc1)N(C[C@H](CC1CCCCC1)N(CCc1ccccc1)N=O)N=O)N=O,inconclusive: 54.7%
21,C[C@@H]1CN([C@@H](C)CO)C(=O)c2cc(NC(=O)CCCN(C)C)ccc2O[C@@H](C)CCCCO[C@@H]1CN(C)S(=O)(=O)c1ccc(F)cc1,active: 43.5%
22,O=C(Nc1ccccc1)c1nc[nH]c1C(=O)NCCCCNC(=O)c1[nH]cnc1C(=O)Nc1ccccc1,inactive: -3.71%

# Looked up by compound from above (3):
row,SMILES,CPE inhibition
21,C[C@@H]1CN([C@@H](C)CO)C(=O)c2cc(NC(=O)CCCN(C)C)ccc2O[C@@H](C)CCCCO[C@@H]1CN(C)S(=O)(=O)c1ccc(F)cc1,active: 43.5%
12,CNC(=O)C[C@H]1CC[C@@H]2[C@H](COc3ccc(NC(=O)Nc4ccc(C)cc4)cc3C(=O)N2C)O1,inactive: 3.85%
17,C[C@H](CO)N1C[C@H](C)[C@H](CN(C)C(=O)Nc2ccc(F)cc2)Oc2c(NS(=O)(=O)c3ccccc3)cccc2C1=O,inactive: 17.3%

# (further entries)

row,SMILES,CPE inhibition
1,O=C(NCC1CCCO1)c1ccccc1NS(=O)(=O)c1cc([N+](=O)[O-])ccc1Cl (stereo not drawn),inconclusive: 38%
2,CN1CCCCC(NC(=O)c2cccc(F)c2)C1=O (stereo not drawn),inconclusive: 54.4%
3,CC1CCCC/C1=N\NC(=S)Nc1ccccc1 (stereo not drawn),inconclusive: 27.4%
4,O=C(C1=C[C@H](c2csc3ccccc23)C[C@H](OCc2ccc(CO)cc2)O1)N1CCCCCCC1,inconclusive: 31.3%
5,C[C@H](CO)N1C[C@H](C)[C@H](CN(C)S(=O)(=O)c2ccc(C#N)cc2)Oc2ncc(/C=C/c3ccccc3)cc2C1=O,inconclusive: 23.7%
6,CN(C)CCCNC(=O)[C@@H]1[C@@H](CO)[C@@H]2Cn3c(ccc(-c4cccc(F)c4)c3=O)[C@H]1N2,inconclusive: 22.9%
7,COc1ccc(NC(=O)Nc2ccc3c(c2)C(=O)N([C@@H](C)CO)C[C@@H](C)[C@@H](CN(C)C(=O)c2ccccc2)OCCCC[C@@H](C)O3)cc1,inactive: -6.22%
8,CC(=O)c1cccc(NC(=O)c2cnccn2)c1,inconclusive: 20.9%
9,COc1cc(OC)c([N+](=O)[O-])cc1/C=N/NC(=O)c1ccncc1,inconclusive: 22.2%
10,CCN(c1ccccc1)S(=O)(=O)c1ccc(Oc2ccccc2)c(N)c1,inconclusive: 24.4%
11,C[C@H](CO)N1C[C@H](C)[C@H](CN(C)C(=O)NC2CCCCC2)Oc2c(NC(=O)c3ccc(-c4nccs4)cc3)cccc2C1=O,inconclusive: 22.7%
12,Cc1cc(C)n(-c2ccc(C(=O)NCc3ccc(F)cc3)cc2)n1,inconclusive: 22%
13,COc1ccc(NC(=O)C2(C)CCN2C(=O)c2ccc(C(C)(C)C)cc2)cc1OC (stereo not drawn),inconclusive: 32.7%
14,CC(C)C#Cc1ccc2c(c1)O[C@H](CN(C)Cc1ccccc1)[C@@H](C)CN([C@H](C)CO)S2(=O)=O,inconclusive: 58.8%
15,COc1cccc(-c2ccc(C3[C@@H]4CN(S(=O)(=O)c5cn(C)cn5)C[C@H]3N4)cc2)c1 (stereo partly drawn),active: 131%
16,COc1ccc([C@H]2N[C@]3(CCCN(Cc4ccco4)C3=O)[C@H]3C(=O)N(C)C(=O)[C@@H]23)cc1,active: 91.3%
17,CCNC(=O)C[C@@H]1CC[C@@H]2[C@H](COC[C@H](O)CN2C(=O)c2cc(Cl)cc(Cl)c2)O1,inconclusive: 25.3%
18,CCN(C[C@H]1N[C@@](C)(C(=O)OC)[C@H]2C(=O)N(Cc3ccccc3)C(=O)[C@@H]12)C(=O)c1ccc(C(C)(C)C)cc1,inconclusive: 23.1%
19,COc1ccc(CN2C(=O)CC(Cc3cc(C)cc(C)c3)C2=O)cc1OC (stereo not drawn),inactive: 0.62%
20,CCC(C)Sc1cccc(-c2nc3ccc(C)cn3c2NC2CCCCC2)c1 (stereo not drawn),active: 60.4% and inconclusive: 25.4%
21,C[C@@H]1CCCCO[C@@H](CN(C)C(=O)Nc2cccc3ccccc23)[C@@H](C)CN([C@@H](C)CO)C(=O)c2cc(NC(=O)Cc3ccccc3)ccc2O1,inactive: -1.78%
